PubChem BioAssay AID1224826, NIAID – 2016

- Aim: 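Regulators of Tlr4 signalling leading to Tnf-alpha expression in macrophages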 (primary screen)
- System: RAW264.7 G9 macrophages from mouse bearing reporters for p65 (GFP) and the Tnf promoter (mCherry)
- Reagent: siRNA pool against mouse genes, 100 nM
- Timing: 16 h of LPS stimulation, after 2 days of siRNA transfection
- Conditions: bacterial lipopolysaccharide (Salmonella minnesota R595), 10 ng/ml
- Measurement: 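Imaged Tnf reporter mCherry in nuclei, minus background, normalised per plate to the median and expressed as robust z-scores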
- Reading the numbers: Tnf reporter robust z-score: higher = stronger Tnf promoter reporter signal after LPS; Tnf reporter intensity: higher = stronger Tnf promoter reporter signal
- Call rule: 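Called active when robust z-score is at most -1.3, matching the median of the Tlr4 knock-down control, or over 3; control wells and wells with under 50 cells never active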
- Calls: active = Tnf reporter clearly lowered or raised; inactive = no clear change in Tnf reporter
Here is an unselected part of about 17,000 reagents. About 1,110 of all reagents (6.6%) were called active. 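Active means lowered or raised reporter signal; replicate intensities are raw and not normalised per plate.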 Unmarked entries are inactive. The numbers tell different reagents against one gene apart. Reagent sequences are not shown.

| Target gene | reagent | Tnf reporter robust z-score | fewer than 50 cells in well | Tnf reporter intensity, replicate 1 | Tnf reporter intensity, replicate 2 |
| --- | --- | --- | --- | --- | --- |
| Exoc3 | 1 | 2.04 | enough cells in well | 176 | 164 |
| Slc44a4 | 1 | – | fewer than 50 cells per well; well left out of calls | 154 | 33.7 |
| Orc5 | 1 | 0.55 | enough cells in well | 191 | 142 |
| Brf2 | 1 | – | fewer than 50 cells per well; well left out of calls | 131 | 178 |
| Cmc1 | 1 | – | fewer than 50 cells per well; well left out of calls | 82.1 | 24.9 |
| Ccr8 | 1 | -0.39 | enough cells in well | 178 | 272 |
| Cacng4 | 1 | -1.09 | enough cells in well | 89.7 | 131 |
| Pde1a | 1 | 0.54 | enough cells in well | 264 | 232 |
| Ap1b1 | 1 | -0.36 | enough cells in well | 183 | 163 |
| Npas1 | 1 | -0.64 | enough cells in well | 146 | 177 |
| Arxes1 | 1 | 2.56 | enough cells in well | 371 | 315 |
| Pank2 | 1 | -0.27 | enough cells in well | 207 | 175 |
| Hand1 | 1 | 0.34 | enough cells in well | 474 | 214 |
| Wdr24 | 1 | -0.03 | enough cells in well | 142 | 210 |
| Aifm3 | 1 | 0.35 | enough cells in well | 349 | 57 |
| Fkbpl | 1 | -0.06 | enough cells in well | 259 | 225 |
| Acsl3 | 1 | -1.69 (active) | enough cells in well | 50.4 | 97.4 |
| Rpp21 | 1 | 1.07 | enough cells in well | 199 | 149 |
| Clca3b | 1 | 0.11 | enough cells in well | 183 | 166 |
| Kash5 | 1 | -1.48 (active) | enough cells in well | 98.9 | 66.5 |
| Creb1 | 1 | -0.33 | enough cells in well | 177 | 211 |
| Creb1 | 2 | -0.23 | enough cells in well | 203 | 62 |
| Amigo1 | 1 | -0.93 | enough cells in well | 86.8 | 181 |
| Lcn9 | 1 | 0.09 | enough cells in well | 169 | 212 |

Quoted from the listing for reference:
| Target gene | reagent | Tnf reporter robust z-score | fewer than 50 cells in well | Tnf reporter intensity, replicate 1 | Tnf reporter intensity, replicate 2 |
| --- | --- | --- | --- | --- | --- |
| Aifm3 | 1 | 0.35 | enough cells in well | 349 | 57 |
| Fkbpl | 1 | -0.06 | enough cells in well | 259 | 225 |
| Acsl3 | 1 | -1.69 (active) | enough cells in well | 50.4 | 97.4 |
